Experiment: Competitive cycloaddition of sydnone and azide 1 with BCN followed by 1H NMR
Assay type: physicochemical
Details: 0.1 mmol each of sydnone, azide 1 and BCN, CD3OD, room temperature
Protocol: 0.1 mmol of sydnone S1-2, azide 1
and BCN were dissolved in CD3OD at room temperature. The reaction was followed by NMR on the aromatic part of the spectrum which provides specific NMR signals.

In the case of `O=C(O)c1ccc(-[n+]2noc([O-])c2Cl)cc1` [Sydnone S1-2, 3-(4-carboxyphenyl)-4-chloro-1,2,3λ^5-oxadiazol-3-ylium-5-olate], the “competition with azide for cyclooctyne, share in favor of the chlorosydnone” value is reported as “more than 95%”.

Source: US20170081300A1, “SYDNONE DERIVATIVES FOR CONJUGATION OF COMPOUNDS OF INTEREST” (UNIVERSITE DE STRASBOURG, priority 2014, published 2017)
